Results on one molecule are retold here after article PMC6527568.

The target in the experiment is 2xMyc-tagged-Vtd (Drosophila). The experiment is described as follows: co-IP; extracts of S2 cells transfected with two tagged constructs; IP with anti-FLAG, anti-V5 or anti-Myc at 4 °C for 2 h, protein G beads; IP buffer 20 mM HEPES pH 7.4, 80 mM KCl, 0.2% NP-40.

These are yes or no findings as the source states them, for the method shown. In cells and extracts the contact can be indirect. A result given as binding can be weak or reduced; the word gives no strength. Sequences can lack the tags named with a protein.

B1: V5-tagged-Tws (protein, UniProt P36872 1-499)
chain: MGRWGRQSPVLEPPDPQMQTTPPPPTLPPRTFMRQSSITKIGNMLNTAININGAKKPASNGEASWCFSQIKGALDDDVTDADIISCVEFNHDGELLATGDKGGRVVIFQRDPASKAANPRRGEYNVYSTFQSHEPEFDYLKSLEIEEKINKIRWLQQKNPVHFLLSTNDKTVKLWKVSERDKSFGGYNTKEENGLIRDPQNVTALRVPSVKQIPLLVEASPRRTFANAHTYHINSISVNSDQETFLSADDLRINLWHLEVVNQSYNIVDIKPTNMEELTEVITAAEFHPTECNVFVYSSSKGTIRLCDMRSAALCDRHSKQFEEPENPTNRSFFSEIISSISDVKLSNSGRYMISRDYLSIKVWDLHMETKPIETYPVHEYLRAKLCSLYENDCIFDKFECCWNGKDSSIMTGSYNNFFRVFDRNSKKDVTLEASRDIIKPKTVLKPRKVCTGGKRKKDEISVDCLDFNKKILHTAWHPEENIIAVAATNNLFIFQDKF
As for B1, the binding result is “binds”.
